According to publication PMC9936748:
These are yes or no findings as the source states them, for the method shown. Binding seen in cells or lysates may run through a third protein. Some binding calls cover weakened binding; strength is not graded here. For part of these data: Sequences can lack the tags named with a protein. Each block holds one molecule with its values, some of them ahead of it.

Protein sequences, listed by entry. Tags and fused reporters are not part of them.
UniProt Q92786: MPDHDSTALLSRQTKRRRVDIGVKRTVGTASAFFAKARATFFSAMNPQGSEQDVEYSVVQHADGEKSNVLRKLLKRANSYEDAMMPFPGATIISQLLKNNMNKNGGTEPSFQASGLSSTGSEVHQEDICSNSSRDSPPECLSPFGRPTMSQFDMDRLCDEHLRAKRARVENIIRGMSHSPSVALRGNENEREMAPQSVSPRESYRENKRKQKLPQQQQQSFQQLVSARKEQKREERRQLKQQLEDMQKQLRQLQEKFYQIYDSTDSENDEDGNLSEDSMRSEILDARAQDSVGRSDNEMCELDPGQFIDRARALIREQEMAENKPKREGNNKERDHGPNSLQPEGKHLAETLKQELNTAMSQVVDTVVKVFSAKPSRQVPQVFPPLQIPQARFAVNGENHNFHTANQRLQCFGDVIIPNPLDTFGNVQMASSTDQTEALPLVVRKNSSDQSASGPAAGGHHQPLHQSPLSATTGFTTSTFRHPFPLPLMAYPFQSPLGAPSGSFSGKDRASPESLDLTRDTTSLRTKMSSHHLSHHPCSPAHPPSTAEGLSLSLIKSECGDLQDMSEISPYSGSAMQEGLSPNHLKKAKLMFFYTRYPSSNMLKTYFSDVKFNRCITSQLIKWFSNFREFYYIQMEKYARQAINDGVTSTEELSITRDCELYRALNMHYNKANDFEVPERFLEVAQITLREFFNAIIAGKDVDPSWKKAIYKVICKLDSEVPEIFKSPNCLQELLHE

Legend:
[1] = molecular target: T1, GST-NAA10 (UniProt P41227); experiment: pull-down; GST-pulldown assay: GST-NAA10 as bait, Flag-PROX1 as prey
T1 sequence: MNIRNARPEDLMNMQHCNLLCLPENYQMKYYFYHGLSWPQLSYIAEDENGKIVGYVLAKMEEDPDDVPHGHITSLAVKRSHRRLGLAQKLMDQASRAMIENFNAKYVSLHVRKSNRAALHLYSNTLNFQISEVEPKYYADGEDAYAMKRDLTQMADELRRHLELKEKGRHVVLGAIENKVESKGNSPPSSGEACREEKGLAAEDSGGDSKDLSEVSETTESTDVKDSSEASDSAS

[2] = molecular target: T2, N-α-acetyltransferase 10 (NAA10), endogenous in HLECs (human (endogenous in HLECs)) (UniProt P41227); experiment: co-IP; endogenous proteins in HLECs; precipitated with NAA10 antibody or with PROX1 antibody, detected by western blot; repeated with circ_0026611 overexpression (Fig. 6D)
T2 sequence: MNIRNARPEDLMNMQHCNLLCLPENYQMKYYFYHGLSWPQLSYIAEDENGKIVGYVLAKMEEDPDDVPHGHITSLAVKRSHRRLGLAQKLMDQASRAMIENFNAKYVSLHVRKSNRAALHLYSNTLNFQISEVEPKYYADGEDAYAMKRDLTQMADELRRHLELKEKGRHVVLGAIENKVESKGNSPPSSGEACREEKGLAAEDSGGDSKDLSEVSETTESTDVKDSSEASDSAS

[3] = molecular target: prospero homeobox 1 (PROX1), endogenous in HLECs (human (endogenous in HLECs)) (UniProt Q92786); experiment: as above

- binding [1]: binds
Molecule: Flag-PROX1 (from UniProt Q92786 1-737)

- binding [2]: binds
Molecule: prospero homeobox 1 (PROX1), endogenous in HLECs (from UniProt Q92786 1-737)

- binding [3]: binds
B1: N-α-acetyltransferase 10 (NAA10), endogenous in HLECs (enzyme, UniProt P41227 1-235)
chain: MNIRNARPEDLMNMQHCNLLCLPENYQMKYYFYHGLSWPQLSYIAEDENGKIVGYVLAKMEEDPDDVPHGHITSLAVKRSHRRLGLAQKLMDQASRAMIENFNAKYVSLHVRKSNRAALHLYSNTLNFQISEVEPKYYADGEDAYAMKRDLTQMADELRRHLELKEKGRHVVLGAIENKVESKGNSPPSSGEACREEKGLAAEDSGGDSKDLSEVSETTESTDVKDSSEASDSAS
